The whole screen tested about 52,000 sequences, of which about 210 (0.4%) were called active.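 Rule for the calls: active = gene whose silencing raises cell survival under the drug, median off-target-corrected z-score across its silencing RNAs 2 or more; inactive = the rest.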 The list shows a part of the results.

A short description of the assay: Resistance to Poly (ADP-Ribose) Polymerase inhibitor: Gene Identification via Genome-wide siRNA Screen. As to conditions: mouse BRCA2 R2336H ES cells, olaparib, CellTiter-Glo viability; stronger effect = higher value. Summed up:
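Genome-wide siRNA screen (3 siRNAs/gene, 20 nM) in mouse ES cells carrying hypomorphic BRCA2 R2336H; olaparib 500 nM added 48 h post-transfection, CellTiter-Glo viability 72 h later. Normalized to plate-median negative control; MAD z-scores, gene median, seed-adjusted.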
Take “CGGUACAAACAGUGCAGAUTT against 1300018P11Rik”: the z-score was inactive: -2.59.

For “GCACCCAACCCAAAAACACTT against 5730596B20Rik”, the z-score is inactive: 0.175.

Turning to GGCAAAGAUGAUGGAAAAATT against Srp68, the z-score is inactive: -0.581.

As for CCAUUAAUGCAGACACUACTT against Amy2, the z-score was inactive: 1.29.

As to GGAGACUUGCUAAAUGCCCTT against Fkbp7, the z-score was inactive: 0.135.

Turning to “GGCUCGGUACUUAAAGGAUTT against 3300001M20Rik”, the z-score is inactive: -1.31.

On to GGCAUUACAGUGUUUCUGCTT against Tgfbr1, for which the z-score was inactive: 0.956.

Turning to GGAAGUGAACAAAAUGACUTT against Afp, the z-score is inactive: 2.

Consider GGCCUUUGGGACAUGUGUGTT against Olfr552, for which the z-score was inactive: 0.095.

Take GGUAAGCUAGGUUGCCCACTT against Gabarapl1: the z-score was inactive: 0.151.

In the case of GGAGAGUGGGAUGCCUAUUTT against Rsl1, the z-score is inactive: -3.09.

On to “GGCAGCAUUUAUGGAGUACTT against 2810024B22Rik”, for which the z-score is inactive: -1.37.

In the case of GCUGCUUAAGUACAUCAGATT against Grm4, the z-score was inactive: -1.05.

As to CGGGACACUUGAAUUGGCUTT against Frmd4a, the z-score is inactive: -0.555.

Consider GGCAGUACCAGGUCCAGAATT against Angpt2, for which the z-score was inactive: -0.978.

For GAACUUUUUUUCUGUGAACTT against Olfr174, the z-score is inactive: -1.18.

For the sequence GGUCCACUGGAAAUGCUUUTT against F2rl3, the z-score was inactive: 0.955.

Consider GGACUUUUGGCACUCUUAUTT against Snx10, for which the z-score is inactive: 1.04.

“GGAUGAUUCAGAUGAAGAUTT against 1500031H04Rik”: the z-score is inactive: -2.16.

As to GGAUCAGAUGACACAGACUTT against Stk19, the z-score is inactive: -0.687.

With AUUAGAAGUAAACACGGGATT against Krtap16-9, the z-score was inactive: -0.0252.

For “GGCAAAACCACAAUGAACUTT against D15Ertd785e”, the z-score was inactive: -1.64.

With “GCAAUGAGCCAUUAAAGUGTT against 2810405K02Rik”, the z-score was inactive: -0.251.

GGAAAGCUCUCAAUACCUGTT against Olfr633: the z-score was inactive: 0.784.

As for GCCUUUCAUGCUCCAACAUTT against Olfr995, the z-score is inactive: -0.408.

Consider GGUUUGGAUUGGGUAAAGGTT against Apex1, for which the z-score is inactive: 0.473.

With GCCACAUCCUAUGUGAUGATT against Olfr1349, the z-score was inactive: 1.23.

Take GGCGAGAAGUGUAACAUUCTT against Fjx1: the z-score was inactive: -0.247.

As to “CCGUGAUGGACAUCUAUUCTT against 6530404F10Rik”, the z-score was inactive: -2.2.

On to GCGAUUUUACGGAUCCGGUTT against Olfr1420, for which the z-score is inactive: -0.612.

Take GCUAAAAACGACCACAACCTT against Mvd: the z-score was inactive: 1.35.

As to CCACCAUGACUGCAAAUGUTT against Olfr1469, the z-score was inactive: -1.09.

Consider GCAUCAUCCAUACGUCUUATT against Ovgp1, for which the z-score is inactive: -0.0802.

As for GUACCUCUUUUUGUAAUGUTT against Olfr232, the z-score was inactive: -0.863.

For CGGGCCUAAACCUCUUAAUTT against Rest, the z-score is inactive: -0.882.

For CCAAAACCUGAACUCACUATT against Fzd5, the z-score was inactive: -0.921.

Regarding CCUUAUCACAUGUAUCCUCTT against Slc9a9, the z-score was inactive: -0.123.

Consider GGGACUGGCAGAUCUUAUCTT against Gtpbp3, for which the z-score was inactive: 0.463.

Turning to GGAGCGAUUUGCUGGUGUGTT against Rps16, the z-score is inactive: -3.43.

As for GCCCACCUAAACCAACAGUTT against Dap, the z-score was inactive: -0.744.

In the case of “GGACAACCGAAGUUUUAAUTT against E130308A19Rik”, the z-score was inactive: 1.78.

Take CCAGCUGGAAUUCAUGGUCTT against Olfr1307: the z-score was inactive: -0.32.

Turning to CCAUUGUUUGACUCAAAACTT against Gje1, the z-score was inactive: 0.0932.

With GGAAGUGUACUUCUACACATT against Gabrq, the z-score was inactive: -1.79.

Regarding GGAGAAGGGAACCAAUAAGTT against Vgll1, the z-score was inactive: -0.434.

UGCAUGGACUUACGAAAGATT against Tas2r115: the z-score was inactive: 0.564.

Regarding GGUGAGCAAAGAGACAUAUTT against Hivep3, the z-score was inactive: 0.0613.

In the case of GGACAACAUUCAUUUCUGUTT against MGC29978, the z-score was inactive: 0.44.

Turning to GGAGACUACCAGAAGGCCUTT against Stip1, the z-score was inactive: 0.179.

In the case of “GGCCUAUUCAAAAAUCAGCTT against E230011A21Rik”, the z-score was inactive: -0.0682.

Take GCAAUGUGACCUUUCUUCUTT against Tm7sf3: the z-score was inactive: 0.626.

On to “GGAGAGAUGUAGAAUAUGGTT against 9530046H09Rik”, for which the z-score was inactive: 2.3.

In the case of GGGUUGUUCCAAAUGCUAGTT against Skp1a, the z-score is inactive: -0.693.

For CCACUUACAUGUCAGAUUATT against Slc30a6, the z-score was inactive: 1.24.

GCGCGUUCCUGAUGUUUACTT against AI849156: the z-score is inactive: -1.08.

Take GGAAGGUGAGAGCAUUAUGTT against Lrba: the z-score was inactive: -1.05.

As to “GUGGUGGUGGAAGACAUAATT against 2810435D12Rik”, the z-score is inactive: -0.552.

Consider CCUGAAAAAAUUUAUCGCCTT against Rnf3, for which the z-score was inactive: -0.169.

In the case of “CCUUCACAAGGACAAGUUUTT against C330027G06Rik”, the z-score is inactive: -1.05.

On to GGACCAUGUAUUUUUCUCUTT against B3gnt5, for which the z-score is inactive: 1.91.

Take CCGUCUAUUAGUGAAGAUGTT against Pex1: the z-score was inactive: 0.785.

Take “GCAGCUCAACUAUUCUUGATT against D1Ertd622e”: the z-score was inactive: -0.993.

For “GGAAGAAAGCCAUUUGCUUTT against 4632412I24Rik”, the z-score was inactive: 0.766.

Turning to GCCCAAAUGAGACUACUUUTT against Es22, the z-score was inactive: -0.0913.

Regarding UGUAAUCACCCACUUUUUCTT against Olfr386, the z-score is inactive: -0.0492.

On to GGAUAAGGUAAUCUCGGUATT against Olfr710, for which the z-score is inactive: -0.267.

Consider “GGAAAUGGUGCAGAAAACCTT against F830029L24Rik”, for which the z-score was inactive: -0.107.

As for “GCAACAAAAGGCCUAAUCATT against 4930550C14Rik”, the z-score was inactive: 2.11.

As to GCCAAGCACUGGACUAUGATT against Cdk5r2, the z-score was inactive: 0.752.

Turning to GGAAGUUGAAAAUGAAAACTT against Myom2, the z-score is inactive: 0.856.

Consider “GGAAGCAUGUGAGAGAAAATT against 4930565N07Rik”, for which the z-score was inactive: 1.12.

In the case of GGCAAUUGCUGGGUUUCCATT against Mlp, the z-score was inactive: -1.48.

Take GGUCCUUAAUCAUCUGCAUTT against Galr1: the z-score was inactive: -0.816.

In the case of GGACAUGUGCAUGAAGGUUTT against Cryl1, the z-score was inactive: 0.145.

As for GGUUGAAAAUGGAAGAGUATT against Mbnl2, the z-score is inactive: -1.85.

As to GCAAAACCAAGUGAAUGUGTT against Plac1, the z-score was inactive: -0.146.

Regarding GGAUGUCUCAAAGUAAGAATT against Daf2, the z-score is inactive: -0.885.

For the sequence CCAAAGAUGCUAGUUGACCTT against Olfr1135, the z-score is inactive: -1.33.

Consider GGCAAUUCUGAAGAAACCATT against Ogn, for which the z-score is inactive: -1.05.

Consider GGACAUGAGGCUUCUGAGATT against Mcpt6, for which the z-score was inactive: -0.95.

“GGAAGACAAAAUGUUCUAATT against 5830482G23Rik”: the z-score was inactive: -0.974.

Regarding GGAGAUACCUUAGAAGAUATT against Dlgh2, the z-score is inactive: -0.396.

Turning to GGGUACCAGAUGAUCCAAATT against Hrmt1l6, the z-score was inactive: 0.24.

With GGACAAAAGGCAGCUUAUUTT against Cnot3, the z-score was inactive: -2.29.

For the sequence GGAGAACAUUCCUUUACAGTT against Ces3, the z-score was inactive: 0.508.

“GGAACUGGGCAUCAAGUACTT against 1600020H07Rik”: the z-score is inactive: 0.69.

Consider UGAAGUGGUGAAUCAGAGUTT against Olfr1167, for which the z-score was inactive: -1.56.

CGUCAACCUUUGGUACAAATT against Cabin1: the z-score was inactive: 0.309.

As to GGGAACGAGAACCGAUUUGTT against Tfpi, the z-score is inactive: -0.848.

Regarding GGUCUUCUCUCACCUUUUATT against 6.33E+19, the z-score was inactive: -1.26.

Consider CCAGCUUACAUGAAUAGUUTT against Cart1, for which the z-score was inactive: 0.953.

As for CCUGCACACCAAGUAUCUGTT against Ccl6, the z-score is inactive: -0.0676.

Regarding GGUGGCUUGAGCAGAAUCUTT against BC016201, the z-score was inactive: -0.0596.

As to “GGAGCUCUUUGCCAAGAAUTT against 4732416F18”, the z-score is inactive: -2.25.

As for GGAACAUCAUCAACCACUATT against Olfr909, the z-score is inactive: -0.371.

On to GCUCUUGUUAUUUACGUCGTT against Lgi1, for which the z-score is inactive: 0.372.

With CGGUCUUGUGGUCUUUUACTT against Rab7, the z-score was inactive: 1.11.

As to GGUAGGAAGCUAGAGAAAUTT against Synj2, the z-score is inactive: -0.492.

As to CGGUUCCUCUAACAUGAUATT against Ppp1r2, the z-score is inactive: 0.26.

For GCUCUGAUAUUCUCAUCAATT against Olfr39, the z-score was inactive: 1.92.

Consider GGAUCCAAGCAUUAUAGUGTT against LOC229512, for which the z-score was inactive: -0.425.

Take GCUGGACCGAAUUGAUUCATT against Egfl7: the z-score was inactive: 1.32.

As to GCAAUGGACCAUUUUCUUUTT against Olfr812, the z-score is inactive: 0.171.

Take GGCACUGAAUGACUUUGUGTT against Pik3cd: the z-score was inactive: -0.3.

The record behind these values is PubChem BioAssay AID1347423 (Functional Genomics Laboratory (NCATS/FGL), 2020).
